Data from the supplement of paper PMC10849652.
The list shows a part of the results.

Protein sequences, listed by entry. Tags and fused reporters are not part of them. Lines headed by an entry give the natural chain unless they say otherwise; changes in a name come on top.
UniProt Q9NQT5, whole entry, looked up: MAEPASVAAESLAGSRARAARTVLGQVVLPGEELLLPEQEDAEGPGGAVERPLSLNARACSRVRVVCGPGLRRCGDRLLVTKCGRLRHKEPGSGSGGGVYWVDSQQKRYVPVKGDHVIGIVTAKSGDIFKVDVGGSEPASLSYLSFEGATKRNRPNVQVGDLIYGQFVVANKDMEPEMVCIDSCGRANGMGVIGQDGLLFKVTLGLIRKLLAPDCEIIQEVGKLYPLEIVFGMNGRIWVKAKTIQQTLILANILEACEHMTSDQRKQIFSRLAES
UniProt Q2NKX8: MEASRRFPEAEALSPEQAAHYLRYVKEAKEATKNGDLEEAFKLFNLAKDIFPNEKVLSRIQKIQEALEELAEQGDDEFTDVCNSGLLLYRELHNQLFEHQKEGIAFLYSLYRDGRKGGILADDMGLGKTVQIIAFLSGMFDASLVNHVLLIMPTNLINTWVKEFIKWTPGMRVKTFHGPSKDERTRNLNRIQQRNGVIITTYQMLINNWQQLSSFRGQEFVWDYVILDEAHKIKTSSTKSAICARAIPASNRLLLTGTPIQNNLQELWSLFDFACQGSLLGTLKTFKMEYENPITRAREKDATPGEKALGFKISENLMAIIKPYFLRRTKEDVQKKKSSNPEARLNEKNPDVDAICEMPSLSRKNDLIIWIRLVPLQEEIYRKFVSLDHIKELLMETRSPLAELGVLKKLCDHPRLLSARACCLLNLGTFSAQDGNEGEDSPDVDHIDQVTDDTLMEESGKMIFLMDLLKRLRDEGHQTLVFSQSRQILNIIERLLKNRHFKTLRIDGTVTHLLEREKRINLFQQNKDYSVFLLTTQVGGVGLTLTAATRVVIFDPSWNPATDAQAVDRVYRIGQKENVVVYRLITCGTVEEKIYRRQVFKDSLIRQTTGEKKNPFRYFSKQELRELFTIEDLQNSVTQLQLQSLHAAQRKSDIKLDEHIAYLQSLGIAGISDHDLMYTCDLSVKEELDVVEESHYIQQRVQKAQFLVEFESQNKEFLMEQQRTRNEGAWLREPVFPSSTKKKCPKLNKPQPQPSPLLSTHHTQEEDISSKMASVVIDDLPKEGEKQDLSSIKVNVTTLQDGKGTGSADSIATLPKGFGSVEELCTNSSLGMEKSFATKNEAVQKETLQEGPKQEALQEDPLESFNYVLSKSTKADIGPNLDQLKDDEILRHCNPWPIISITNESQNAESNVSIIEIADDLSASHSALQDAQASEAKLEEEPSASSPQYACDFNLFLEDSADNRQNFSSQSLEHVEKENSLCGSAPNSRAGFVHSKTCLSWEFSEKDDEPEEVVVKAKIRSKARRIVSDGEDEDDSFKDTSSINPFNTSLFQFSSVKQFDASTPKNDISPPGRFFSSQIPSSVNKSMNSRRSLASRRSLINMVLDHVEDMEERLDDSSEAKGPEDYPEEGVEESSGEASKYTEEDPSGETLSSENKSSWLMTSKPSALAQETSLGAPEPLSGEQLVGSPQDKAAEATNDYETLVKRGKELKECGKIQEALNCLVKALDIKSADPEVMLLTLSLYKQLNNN
UniProt Q7Z309: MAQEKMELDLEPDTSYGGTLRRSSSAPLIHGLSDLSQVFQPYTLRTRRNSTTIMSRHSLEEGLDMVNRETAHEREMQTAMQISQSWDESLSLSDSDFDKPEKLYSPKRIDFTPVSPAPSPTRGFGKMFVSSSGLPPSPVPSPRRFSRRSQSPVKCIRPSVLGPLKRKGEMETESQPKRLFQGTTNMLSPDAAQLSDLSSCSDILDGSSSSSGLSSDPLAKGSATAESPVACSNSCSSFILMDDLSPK
UniProt Q9NRY5: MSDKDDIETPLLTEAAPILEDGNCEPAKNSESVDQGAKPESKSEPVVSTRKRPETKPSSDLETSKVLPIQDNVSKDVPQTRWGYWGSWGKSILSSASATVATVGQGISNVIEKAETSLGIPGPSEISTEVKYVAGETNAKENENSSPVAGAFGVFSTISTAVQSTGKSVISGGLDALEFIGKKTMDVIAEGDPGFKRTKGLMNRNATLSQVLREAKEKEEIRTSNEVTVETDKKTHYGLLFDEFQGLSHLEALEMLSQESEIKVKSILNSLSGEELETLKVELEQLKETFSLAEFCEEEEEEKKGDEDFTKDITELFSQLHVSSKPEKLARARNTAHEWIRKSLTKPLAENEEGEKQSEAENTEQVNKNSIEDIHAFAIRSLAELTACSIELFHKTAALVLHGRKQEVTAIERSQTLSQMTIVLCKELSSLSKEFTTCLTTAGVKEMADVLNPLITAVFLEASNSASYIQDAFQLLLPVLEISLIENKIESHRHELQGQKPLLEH
UniProt Q5W0V3: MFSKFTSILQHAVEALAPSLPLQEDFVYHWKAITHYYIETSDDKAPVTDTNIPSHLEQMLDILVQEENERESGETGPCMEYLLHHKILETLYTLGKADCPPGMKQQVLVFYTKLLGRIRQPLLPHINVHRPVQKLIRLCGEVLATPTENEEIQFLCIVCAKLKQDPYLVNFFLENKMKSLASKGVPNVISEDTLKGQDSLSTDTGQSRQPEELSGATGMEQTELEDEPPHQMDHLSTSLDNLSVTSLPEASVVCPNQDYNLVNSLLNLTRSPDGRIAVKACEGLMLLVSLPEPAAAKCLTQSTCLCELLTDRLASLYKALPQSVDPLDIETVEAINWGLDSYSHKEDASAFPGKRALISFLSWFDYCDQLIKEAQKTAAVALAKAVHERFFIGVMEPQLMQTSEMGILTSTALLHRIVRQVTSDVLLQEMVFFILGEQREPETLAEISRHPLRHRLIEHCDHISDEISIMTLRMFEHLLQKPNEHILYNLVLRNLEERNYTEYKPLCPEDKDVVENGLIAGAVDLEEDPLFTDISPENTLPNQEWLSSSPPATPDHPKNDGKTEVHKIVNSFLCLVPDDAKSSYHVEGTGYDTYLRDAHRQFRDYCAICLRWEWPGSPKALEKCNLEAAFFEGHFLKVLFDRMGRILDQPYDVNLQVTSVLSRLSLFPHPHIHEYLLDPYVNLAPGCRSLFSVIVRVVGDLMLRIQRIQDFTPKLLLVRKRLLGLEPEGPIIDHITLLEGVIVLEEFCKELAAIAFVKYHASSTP
UniProt Q0VG06: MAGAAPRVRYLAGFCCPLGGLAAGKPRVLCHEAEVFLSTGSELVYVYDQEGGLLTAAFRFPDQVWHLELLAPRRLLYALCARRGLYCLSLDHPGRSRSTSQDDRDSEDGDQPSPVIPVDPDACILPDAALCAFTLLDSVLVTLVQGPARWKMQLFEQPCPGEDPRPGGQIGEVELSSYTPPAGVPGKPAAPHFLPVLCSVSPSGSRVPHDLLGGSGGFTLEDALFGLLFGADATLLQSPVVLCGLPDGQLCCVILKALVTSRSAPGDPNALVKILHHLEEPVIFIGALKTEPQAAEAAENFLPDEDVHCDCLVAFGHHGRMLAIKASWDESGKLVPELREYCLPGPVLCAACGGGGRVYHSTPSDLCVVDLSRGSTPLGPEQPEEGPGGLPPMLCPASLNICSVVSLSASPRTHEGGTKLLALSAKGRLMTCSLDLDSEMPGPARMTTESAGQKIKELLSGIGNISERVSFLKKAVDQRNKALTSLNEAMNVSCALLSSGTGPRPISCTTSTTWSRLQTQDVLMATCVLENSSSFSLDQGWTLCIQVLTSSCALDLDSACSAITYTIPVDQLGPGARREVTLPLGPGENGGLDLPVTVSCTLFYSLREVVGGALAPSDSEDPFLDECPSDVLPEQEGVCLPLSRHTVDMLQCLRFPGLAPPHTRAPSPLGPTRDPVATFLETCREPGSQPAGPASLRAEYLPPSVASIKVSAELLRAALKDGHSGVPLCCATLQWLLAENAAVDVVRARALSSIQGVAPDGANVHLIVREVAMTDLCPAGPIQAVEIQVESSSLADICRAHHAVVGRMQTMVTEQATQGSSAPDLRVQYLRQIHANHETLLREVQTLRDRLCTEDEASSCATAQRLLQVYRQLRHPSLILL
UniProt Q9UPT5: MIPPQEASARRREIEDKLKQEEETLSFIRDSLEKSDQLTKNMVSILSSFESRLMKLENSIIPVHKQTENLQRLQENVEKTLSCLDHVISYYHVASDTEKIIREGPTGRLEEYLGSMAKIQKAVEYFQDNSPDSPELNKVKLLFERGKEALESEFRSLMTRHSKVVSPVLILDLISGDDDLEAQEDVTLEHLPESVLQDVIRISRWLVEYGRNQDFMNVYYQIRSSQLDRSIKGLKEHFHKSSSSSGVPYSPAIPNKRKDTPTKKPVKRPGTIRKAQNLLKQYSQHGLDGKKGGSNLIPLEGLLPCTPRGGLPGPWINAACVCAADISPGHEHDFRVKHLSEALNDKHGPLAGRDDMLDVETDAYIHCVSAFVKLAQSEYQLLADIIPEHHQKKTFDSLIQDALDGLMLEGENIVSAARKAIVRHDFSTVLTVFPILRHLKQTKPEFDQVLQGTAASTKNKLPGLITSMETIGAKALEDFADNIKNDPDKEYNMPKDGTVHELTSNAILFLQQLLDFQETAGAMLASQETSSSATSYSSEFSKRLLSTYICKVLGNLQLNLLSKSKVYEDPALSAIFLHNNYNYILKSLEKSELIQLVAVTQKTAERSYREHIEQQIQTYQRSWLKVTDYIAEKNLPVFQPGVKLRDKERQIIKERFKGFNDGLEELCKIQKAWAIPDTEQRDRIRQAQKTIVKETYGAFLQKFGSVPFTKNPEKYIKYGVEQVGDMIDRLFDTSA
UniProt O75616: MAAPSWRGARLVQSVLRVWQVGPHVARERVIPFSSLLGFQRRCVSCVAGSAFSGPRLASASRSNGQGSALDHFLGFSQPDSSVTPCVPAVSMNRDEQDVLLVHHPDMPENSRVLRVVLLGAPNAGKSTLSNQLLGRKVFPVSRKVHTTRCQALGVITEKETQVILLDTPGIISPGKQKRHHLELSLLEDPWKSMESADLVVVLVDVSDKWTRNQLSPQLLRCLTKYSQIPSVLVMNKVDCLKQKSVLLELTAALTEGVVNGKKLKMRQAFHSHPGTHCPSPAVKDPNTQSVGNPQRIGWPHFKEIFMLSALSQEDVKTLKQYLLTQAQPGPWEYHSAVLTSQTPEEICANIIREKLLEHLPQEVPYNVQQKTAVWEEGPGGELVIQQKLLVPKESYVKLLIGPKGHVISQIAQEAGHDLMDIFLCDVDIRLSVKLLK
UniProt Q9BSJ8: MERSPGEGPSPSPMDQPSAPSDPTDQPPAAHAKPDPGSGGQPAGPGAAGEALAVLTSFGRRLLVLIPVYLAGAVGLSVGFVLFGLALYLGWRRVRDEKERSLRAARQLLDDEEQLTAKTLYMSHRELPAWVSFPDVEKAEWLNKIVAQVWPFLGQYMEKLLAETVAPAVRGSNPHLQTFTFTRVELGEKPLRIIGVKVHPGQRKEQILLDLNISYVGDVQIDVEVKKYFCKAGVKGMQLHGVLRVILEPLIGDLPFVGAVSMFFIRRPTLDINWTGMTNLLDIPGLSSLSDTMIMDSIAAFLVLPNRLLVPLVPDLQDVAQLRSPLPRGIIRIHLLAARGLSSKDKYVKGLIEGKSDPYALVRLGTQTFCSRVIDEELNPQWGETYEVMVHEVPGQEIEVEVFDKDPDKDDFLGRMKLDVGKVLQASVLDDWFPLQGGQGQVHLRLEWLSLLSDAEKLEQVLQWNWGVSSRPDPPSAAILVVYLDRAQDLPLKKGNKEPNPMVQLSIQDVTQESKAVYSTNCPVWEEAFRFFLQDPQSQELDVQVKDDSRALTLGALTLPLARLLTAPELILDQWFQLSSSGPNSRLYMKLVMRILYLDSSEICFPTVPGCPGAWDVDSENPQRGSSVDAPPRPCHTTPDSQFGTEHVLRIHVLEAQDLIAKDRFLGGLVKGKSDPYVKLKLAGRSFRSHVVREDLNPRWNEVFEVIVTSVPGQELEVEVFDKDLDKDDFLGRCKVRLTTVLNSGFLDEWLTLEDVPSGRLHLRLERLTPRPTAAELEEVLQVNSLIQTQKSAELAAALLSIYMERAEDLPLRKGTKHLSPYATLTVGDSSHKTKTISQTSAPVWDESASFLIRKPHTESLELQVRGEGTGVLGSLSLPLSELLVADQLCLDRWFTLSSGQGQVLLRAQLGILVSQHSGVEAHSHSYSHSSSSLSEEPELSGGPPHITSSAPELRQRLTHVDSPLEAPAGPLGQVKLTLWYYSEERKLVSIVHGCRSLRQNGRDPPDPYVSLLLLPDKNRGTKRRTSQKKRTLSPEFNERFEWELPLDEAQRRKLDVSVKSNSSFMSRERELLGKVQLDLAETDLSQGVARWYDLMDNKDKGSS
UniProt Q9UBQ6: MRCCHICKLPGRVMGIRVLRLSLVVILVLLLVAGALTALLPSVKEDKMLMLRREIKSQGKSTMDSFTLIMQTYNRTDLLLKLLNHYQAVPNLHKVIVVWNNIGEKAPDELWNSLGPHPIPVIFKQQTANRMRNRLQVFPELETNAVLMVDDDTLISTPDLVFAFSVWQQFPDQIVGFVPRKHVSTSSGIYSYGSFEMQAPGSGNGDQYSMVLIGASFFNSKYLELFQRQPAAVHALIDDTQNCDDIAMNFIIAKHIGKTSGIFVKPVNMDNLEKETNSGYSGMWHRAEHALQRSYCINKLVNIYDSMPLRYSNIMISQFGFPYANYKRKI

Legend:
Assay in all cases: log2 fold change, soluble protein after heating vs DMSO (PISA); higher = thermal stabilisation; K562 cells, 10 uM, 30 min; active = over 0.2 and 3.5 SD of the protein, either way, in both replicates (recomputed)
[1] = compound: CS(=O)(=O)c1ccc(-c2cnc(N)c(C(=O)Nc3ccccc3)n2)cc1
In short: (§1)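 Soluble protein was quantified by TMTpro 16plex LC-MS/MS after channel sums were equalised. It was obtained as the supernatant after 21,000xg for 90 min from pooled aliquots of K562 cells (2×10^6 cells/mL, 10 μM compound, 30 min) heated for 3 min across 48°C-58°C and extracted in PBS with 0.5% NP-40 at 4°C. Thermal stability values are relative to control samples and come from duplicates. They are given as log2 fold changes.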

[2] = compound: C[C@@H](Oc1cc(-c2cnn(C3CCNCC3)c2)cnc1N)c1c(Cl)ccc(F)c1Cl [crizotinib]
In short: as §1

[3] = compound: C[C@@H]1COCCN1C2=NC(=NC(=C2)C3(CC3)S(=O)(=O)C)C4=C5C=CNC5=CC=C4
In short: as §1

[4] = compound: C[C@H](C1=CC=C(C=C1)C(=O)NC2=C3C=CNC3=NC=C2)N
In short: as §1

[5] = compound: C[C@H](Nc1ncnc2nc[nH]c12)c1cc2cccc(Cl)c2c(=O)n1-c1ccccc1 [duvelisib]
In short: as §1

[6] = compound: Cc1cc(Nc2cc(CN3CCOCC3)c3nc(C)c(Cc4ccc(Cl)cc4F)n3n2)n[nH]1 [gandotinib]
In short: as §1

[7] = compound: Cc1cc(Nc2cc(N3CCN(C)CC3)nc(Sc3ccc(NC(=O)C4CC4)cc3)n2)n[nH]1 [tozasertib]
In short: as §1

[8] = compound: Cc1cc(SCc2sc(-c3ccc(C(F)(F)F)cc3)nc2C)ccc1OCC(=O)O
In short: as §1

[9] = compound: Cc1ccc(-n2nc(C(C)(C)C)cc2NC(=O)Nc2ccc(OCCN3CCOCC3)c3ccccc23)cc1 [doramapimod]
In short: as §1

[10] = compound: Cc1ccc(C(=O)N(CCCN)[C@@H](c2nc3cc(Cl)ccc3c(=O)n2Cc2ccccc2)C(C)C)cc1 [ispinesib]
In short: as §1

[11] = compound: Cc1ccc(NC(=O)c2ccc(CN3CC[C@H](N(C)C)C3)c(C(F)(F)F)c2)cc1Nc1nccc(-c2cncnc2)n1 [bafetinib]
In short: as §1

[12] = compound: Cc1cccc(CC(=O)N2CCc3c2ccc(-c2cn(C)c4ncnc(N)c24)c3F)n1
In short: as §1

[13] = compound: Cc1cn(-c2cc(NC(=O)c3ccc(C)c(Nc4nccc(-c5cccnc5)n4)c3)cc(C(F)(F)F)c2)cn1 [nilotinib]
In short: as §1

[14] = compound: Cc1nc(Nc2n[nH]c3c2CN(C(=O)N[C@H](CN(C)C)c2ccccc2)C3(C)C)c2sccc2n1
In short: as §1

[15] = compound: Cc1nc(Nc2ncc(C(=O)Nc3c(C)cccc3Cl)s2)cc(N2CCN(CCO)CC2)n1 [dasatinib]
In short: as §1

[16] = compound: Cc1ncc(-c2ccnc(Nc3ccc(S(C)(=O)=O)cc3)n2)n1C(C)C
In short: as §1

[17] = compound: Cn1cc(-c2ccc3c(c2)CCN3C(=O)Cc2cccc(C(F)(F)F)c2)c2c(N)ncnc21
In short: as §1

[18] = compound: Cn1cc(-c2ccc3nnc(C(F)(F)c4ccc5ncccc5c4)n3n2)cn1
In short: as §1

[19] = compound: Cn1cncc1[C@@](N)(c1ccc(Cl)cc1)c1ccc2c(c1)c(-c1cccc(Cl)c1)cc(=O)n2C [tipifarnib]
In short: as §1

[20] = compound: FC(F)(F)c1ccc(/C=C/c2nc(COc3ccc(CCCCn4ccnn4)cc3)co2)cc1 [mubritinib]
In short: as §1

| Target | log2 fold change [1] | log2 fold change [2] | log2 fold change [3] | log2 fold change [4] | log2 fold change [5] | log2 fold change [6] | log2 fold change [7] | log2 fold change [8] | log2 fold change [9] | log2 fold change [10] | log2 fold change [11] | log2 fold change [12] | log2 fold change [13] | log2 fold change [14] | log2 fold change [15] | log2 fold change [16] | log2 fold change [17] | log2 fold change [18] | log2 fold change [19] | log2 fold change [20] |
| --- | --- | --- | --- | --- | --- | --- | --- | --- | --- | --- | --- | --- | --- | --- | --- | --- | --- | --- | --- | --- |
| EZR (UniProt P15311) | inactive: 0.007 | inactive: 0.073 | inactive: 0.003 | inactive: -0.087 | inactive: 0.004 | inactive: -0.015 | inactive: 0.031 | inactive: -0.003 | inactive: -0.009 | inactive: 0.1 | inactive: 0.008 | inactive: 0.027 | inactive: 0.011 | inactive: 0.028 | inactive: -0.013 | inactive: -0.007 | inactive: 0.055 | inactive: -0.025 | inactive: -0.02 | inactive: 0.038 |
| EXOSC3 (UniProt Q9NQT5) | inactive: -0.075 | inactive: -0.021 | inactive: -0.027 | inactive: 0.077 | inactive: 0.02 | inactive: -0.004 | inactive: -0.05 | inactive: 0.031 | inactive: 0.029 | inactive: -0.021 | inactive: 0.047 | inactive: 0.051 | inactive: -0.09 | inactive: 0.059 | inactive: -0.039 | inactive: -0.047 | inactive: -0.005 | inactive: -0.029 | inactive: -0.005 | inactive: -0.015 |
| ERCC6 (UniProt Q03468) | inactive: -0.12 | inactive: 0.061 | inactive: 0.011 | inactive: -0.127 | – | inactive: 0.017 | – | inactive: -0.103 | inactive: 0.053 | inactive: 0.152 | active: -0.775 | inactive: -0.016 | inactive: 0.041 | inactive: -0.087 | inactive: -0.043 | inactive: -0.021 | inactive: 0.129 | inactive: -0.094 | inactive: 0.019 | inactive: 0.059 |
| ERCC6L (UniProt Q2NKX8) | inactive: 0.107 | inactive: -0.144 | inactive: -0.159 | inactive: 0.304 | – | inactive: 0.072 | inactive: 0.075 | – | inactive: 0.238 | inactive: -0.201 | inactive: -0.025 | inactive: -0.116 | inactive: -0.153 | inactive: -0.263 | – | inactive: 0.086 | inactive: -0.142 | inactive: -0.219 | inactive: -0.034 | – |
| FAM122B isoform 3 (UniProt Q7Z309) | inactive: -0.072 | inactive: -0.004 | inactive: 0.131 | inactive: -0.132 | inactive: 0.133 | inactive: 0.046 | inactive: -0.085 | inactive: -0.096 | inactive: 0.026 | inactive: 0.063 | inactive: -0.05 | inactive: 0.1 | inactive: 0.162 | inactive: -0.281 | inactive: -0.016 | inactive: 0.059 | inactive: 0.05 | inactive: -0.047 | – | inactive: -0.072 |
| FAM114A2 (UniProt Q9NRY5) | inactive: -0.005 | inactive: -0.197 | inactive: 0.026 | inactive: -0.026 | – | inactive: -0.06 | – | inactive: 0.011 | inactive: -0.052 | inactive: -0.096 | inactive: -0.094 | inactive: 0.025 | inactive: -0.035 | inactive: -0.032 | inactive: -0.083 | inactive: 0.004 | inactive: 0.001 | inactive: 0.019 | inactive: -0.002 | inactive: 0.055 |
| FAM160B1 (UniProt Q5W0V3) | inactive: 0.015 | inactive: -0.119 | inactive: 0.06 | inactive: -0.003 | – | inactive: -0.217 | – | inactive: 0.049 | inactive: -0.018 | inactive: -0.125 | inactive: -0.018 | inactive: 0.023 | inactive: -0.032 | inactive: -0.049 | inactive: -0.082 | inactive: -0.014 | inactive: -0.053 | inactive: -0.039 | inactive: 0.115 | inactive: 0.023 |
| FAM117A (UniProt Q9C073) | inactive: -0.039 | inactive: -0.166 | inactive: -0.013 | inactive: -0.132 | – | inactive: -0.053 | – | inactive: 0.067 | inactive: 0.017 | inactive: 0.024 | inactive: -0.021 | inactive: 0.004 | inactive: -0.047 | inactive: -0.083 | inactive: -0.046 | inactive: -0.018 | inactive: 0.016 | inactive: 0.032 | inactive: 0.039 | inactive: 0.024 |
| FAAP100 (UniProt Q0VG06) | inactive: -0.043 | inactive: -0.027 | inactive: 0.142 | inactive: -0.051 | – | inactive: -0.096 | – | inactive: -0.077 | inactive: 0.033 | inactive: -0.006 | inactive: 0.201 | inactive: 0.043 | inactive: -0.032 | inactive: -0.005 | inactive: 0.035 | inactive: -0.039 | inactive: -0.005 | inactive: 0.101 | inactive: 0.1 | inactive: 0 |
| FADS3 (UniProt Q9Y5Q0) | inactive: 0.042 | inactive: -0.237 | inactive: 0.198 | inactive: 0.055 | – | inactive: -0.058 | – | inactive: 0.073 | inactive: -0.013 | active: -0.311 | inactive: -0.11 | inactive: 0.044 | inactive: 0.108 | inactive: -0.012 | inactive: -0.109 | inactive: -0.013 | inactive: 0.034 | inactive: -0.037 | inactive: -0.033 | inactive: 0.059 |
| EXOC7 (UniProt Q9UPT5) | inactive: -0.062 | inactive: -0.25 | inactive: -0.028 | inactive: 0.034 | – | inactive: -0.122 | – | inactive: 0.05 | inactive: -0.029 | active: -0.346 | inactive: -0.026 | inactive: 0.014 | inactive: -0.046 | inactive: -0.139 | inactive: -0.234 | inactive: -0.035 | inactive: 0.002 | inactive: 0 | inactive: -0.089 | inactive: -0.011 |
| ERAL1 (UniProt O75616) | inactive: -0.174 | inactive: -0.142 | inactive: -0.437 | inactive: -0.159 | inactive: -0.023 | – | – | inactive: 0.016 | inactive: 0.083 | – | inactive: 0.249 | – | inactive: 0.093 | inactive: -0.049 | inactive: 0.101 | inactive: -0.078 | inactive: 0.272 | – | inactive: 0 | inactive: -0.041 |
| ESYT1 isoform 2 (UniProt Q9BSJ8) | inactive: 0.021 | inactive: -0.134 | inactive: -0.076 | inactive: 0.069 | – | inactive: 0.024 | – | inactive: 0.11 | inactive: 0.083 | inactive: -0.265 | inactive: 0.112 | inactive: 0.137 | inactive: -0.088 | inactive: -0.208 | inactive: -0.147 | inactive: 0.022 | inactive: -0.059 | inactive: -0.06 | inactive: 0.007 | inactive: -0.092 |
| ESS2 (UniProt Q96DF8) | inactive: -0.081 | inactive: -0.079 | inactive: 0.016 | inactive: 0.031 | – | inactive: 0.004 | – | inactive: -0.044 | inactive: 0.02 | inactive: -0.053 | inactive: -0.186 | inactive: -0.07 | inactive: 0.013 | inactive: -0.048 | inactive: 0.011 | inactive: 0.019 | inactive: -0.061 | inactive: -0.081 | inactive: 0.038 | inactive: 0.008 |
| EXTL2 (UniProt Q9UBQ6) | inactive: 0.132 | inactive: 0.111 | inactive: 0.014 | inactive: -0.227 | – | inactive: 0.068 | – | inactive: -0.046 | inactive: -0.01 | inactive: 0.108 | inactive: -0.041 | inactive: 0.021 | inactive: -0.02 | inactive: 0.006 | inactive: -0.008 | inactive: -0.059 | inactive: -0.039 | inactive: -0.064 | inactive: 0.014 | inactive: 0.029 |
| ERCC2 (UniProt P18074) | inactive: 0.011 | inactive: 0.059 | inactive: -0.046 | inactive: -0.013 | – | inactive: -0.035 | – | inactive: 0.08 | inactive: 0.031 | inactive: -0.045 | inactive: 0.094 | inactive: 0.061 | inactive: -0.014 | inactive: -0.175 | inactive: -0.185 | inactive: -0.022 | inactive: 0.05 | inactive: 0.01 | inactive: -0.062 | inactive: 0.114 |

As entered above:
log2 fold change [9], ERCC6L (UniProt Q2NKX8) reads inactive: 0.238
log2 fold change [2], ERAL1 (UniProt O75616) reads inactive: -0.142
